PubChem BioAssay AID743121 | NCATS – 2013

Test: 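Genes whose silencing strengthens cell killing by camptothecin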 (primary screen)
System: MDA-MB-231 cells, a human breast cancer line
Knock-down reagent: single siRNA against human genes, 20 nM siRNA (0.8 pmol per well)
Time to read-out: 120 h (drug added 48 h after transfection, read 72 h later)
Conditions: camptothecin 20 nM (about EC30) for 72 h; vehicle 0.1% DMSO in parallel plates
Measurement: 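Cell viability by ATP luminescence (CellTiter-Glo) as % of non-targeting siRNA wells, and the log2 ratio of viability without drug over viability with camptothecin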
Scale: log2 vehicle/camptothecin viability: higher = stronger sensitisation to camptothecin
Call rule: 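Each gene scored by redundant siRNA activity (RSA) over its individual siRNA ratios; a gene is called active at p < 0.001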
In all, the deposit lists about 26,000 reagents; below is a part drawn at random. Over the whole deposit, 167 (0.63%) were called active. 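Calls are per gene from RSA p-values that are not deposited; an individual active-marked siRNA can sensitise only weakly.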 Unmarked entries are inactive. The numbers tell different reagents against one gene apart. Not all columns of the deposit are shown.

| gene knocked down | reagent no. | log2 vehicle/camptothecin viability |
| --- | --- | --- |
| PTCH2 (GeneID 8643) | 1 | -0.165 |
| PTCH2 (GeneID 8643) | 2 | 1.37 |
| PTCH2 (GeneID 8643) | 3 | 0.283 |
| PTCH2 (GeneID 8643) | 4 | 0.614 |
| UBE3C (GeneID 9690) | 1 | -0.0789 |
| UBE3C (GeneID 9690) | 2 | 0.244 |
| UBE3C (GeneID 9690) | 3 | 0.0287 |
| UBE3C (GeneID 9690) | 4 | -0.0046 |
| SCYL1 (GeneID 57410) | 1 | -0.771 |
| SCYL1 (GeneID 57410) | 2 | 0.0557 |
| SCYL1 (GeneID 57410) | 3 | -0.358 |
| SCYL1 (GeneID 57410) | 4 | 0.18 |
| SLC25A40 (GeneID 55972) | 1 | 0.154 |
| SLC25A40 (GeneID 55972) | 2 | -0.0186 |
| SLC25A40 (GeneID 55972) | 3 | -0.615 |
| SLC25A40 (GeneID 55972) | 4 | 1.21 |
| PTPN18 (GeneID 26469) | 1 | -0.654 |
| PTPN18 (GeneID 26469) | 2 | -0.109 |
| PTPN18 (GeneID 26469) | 3 | -0.148 |
| PTPN18 (GeneID 26469) | 4 | 0.0431 |

Laid out differently: entries from further up.
gene knocked down | reagent no. | log2 vehicle/camptothecin viability
UBE3C (GeneID 9690) | 4 | -0.0046
SCYL1 (GeneID 57410) | 1 | -0.771
SCYL1 (GeneID 57410) | 2 | 0.0557
SCYL1 (GeneID 57410) | 3 | -0.358
SCYL1 (GeneID 57410) | 4 | 0.18
SLC25A40 (GeneID 55972) | 1 | 0.154
SLC25A40 (GeneID 55972) | 2 | -0.0186
SLC25A40 (GeneID 55972) | 3 | -0.615

Next records:
| gene knocked down | reagent no. | log2 vehicle/camptothecin viability |
| --- | --- | --- |
| CAMK2B (GeneID 816) | 1 | -0.434 |
| CAMK2B (GeneID 816) | 2 | -0.8 |
| CAMK2B (GeneID 816) | 3 | -0.146 |
| CAMK2B (GeneID 816) | 4 | -0.201 |
| UBN2 (GeneID 254048) | 1 | -0.514 |
| UBN2 (GeneID 254048) | 2 | -0.108 |
| UBN2 (GeneID 254048) | 3 | -0.297 |
| UBN2 (GeneID 254048) | 4 | 0.00332 |
| ACSL4 (GeneID 2182) | 1 | -0.414 |
| ACSL4 (GeneID 2182) | 2 | -0.102 |
| ACSL4 (GeneID 2182) | 3 | 0.383 |
| ACSL4 (GeneID 2182) | 4 | -0.115 |
| LGALS3BP (GeneID 3959) | 1 | -0.312 |
| LGALS3BP (GeneID 3959) | 2 | -0.248 |
| LGALS3BP (GeneID 3959) | 3 | -0.275 |
| LGALS3BP (GeneID 3959) | 4 | -0.104 |
| JUN (GeneID 3725) | 1 | -0.246 |
| JUN (GeneID 3725) | 2 | 0.537 |
| JUN (GeneID 3725) | 3 | -0.588 |
| JUN (GeneID 3725) | 4 | -0.395 |
| NFATC1 (GeneID 4772) | 1 | -0.31 |
| NFATC1 (GeneID 4772) | 2 | 0.0667 |
| NFATC1 (GeneID 4772) | 3 | -0.076 |
| NFATC1 (GeneID 4772) | 4 | 0.112 |
| MDH2 (GeneID 4191) | 1 | -0.316 |
| MDH2 (GeneID 4191) | 2 | -0.386 |
| MDH2 (GeneID 4191) | 3 | -0.00379 |
